# Measured values published in PubChem BioAssay AID292 (DTP/NCI, 2004).
# The list does not hold the whole screen: it is rich in T/C values a quarter to a half above the control, in often repeated tests (any T/C) and in doses without a T/C. Further doses and runs are listed elsewhere. T/C is the treated group as % of the vehicle group. Some entries give survivors of the animals treated and no T/C: the source holds a T/C of zero for them, seemingly a mark for toxic or unscored doses. Survivors were counted at the toxicity check, usually on the fifth day, unless a day is given; later deaths do not show. Schedules are NCI's codes, read here as Q, the interval in days (D) or hours (H), X, the number of doses. Some doses were run more than once; their values stand side by side, smallest first. For survival time, the PubChem record calls one and a half times the control and up active, and a quarter to a half above the control has no call in these data; cut-offs in other NCI protocols can differ.
# Tested on: B6C3F1 mice, ip Sarcoma M5076, median survival T/C
# Test: NCI In Vivo Anticancer Drug Screen. Data for tumor model Sarcoma M5076 (intraperitoneal) in B6C3F1 mice
# Conditions: T/C endpoint: median survival time, higher T/C = longer survival
# In short: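 Tumour cells were transplanted into mice, compound or vehicle was given, survival of both groups was followed, and the treated figure was expressed over the control figure.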
compound,measurement,setting,value
Nc1ncn(C2OC(CO)C(O)C2O)c(=O)n1 (stereo not given),T/C,"dose: 3.0 mg/kg/injection, schedule: Q01DX009 (ip), vehicle: saline",131 and 134 % of control
same,survivor count,"dose: 6.0 mg/kg/injection, schedule: Q01DX009 (ip), vehicle: saline",0 of 10 on day 14 and 6 of 10 on day 14
same,T/C,"dose: 12.5 mg/kg/injection, schedule: Q01DX009 (ip), vehicle: saline",137 and 138 % of control
same,T/C,"dose: 25.0 mg/kg/injection, schedule: Q01DX009 (ip), vehicle: saline",147 % of control
same,survivor count,"dose: 100.0 mg/kg/injection, schedule: Q01DX009 (ip), vehicle: saline",0 of 10 on day 14
same,survivor count,"dose: 200.0 mg/kg/injection, schedule: Q01DX009 (ip), vehicle: saline",0 of 10 on day 14 and 6 of 10 on day 14
c1cc2c(c(CC3CO3)c1CC1CO1)OCCOCCOCCOCCO2 (stereo not given),survivor count,"dose: 400.0 mg/kg/injection, schedule: Q04DX004 (ip), vehicle: saline + alcohol",5 of 10 on day 14
CN1c2ccccc2C(=O)N2C(=O)CCC21C (stereo not given),survivor count,"dose: 300.0 mg/kg/injection, schedule: Q04DX004 (ip), vehicle: saline with Tween-80",5 of 10 on day 14
COc1ccc(-n2cc[n+](C)c2/C=N\O)cc1,survivor count,"dose: 250.0 mg/kg/injection, schedule: Q04DX004 (ip), vehicle: saline with Tween-80",0 of 10 on day 14
same,survivor count,"dose: 500.0 mg/kg/injection, schedule: Q04DX004 (ip), vehicle: saline with Tween-80",0 of 10 on day 14
